Measurements taken from the supplement of paper PMC10849652.
Some of the results follow.

Chains of the proteins cited; added tags and fusions are not shown. Lines headed by an entry give the natural chain unless they say otherwise; changes in a name come on top.
UniProt Q9UN86: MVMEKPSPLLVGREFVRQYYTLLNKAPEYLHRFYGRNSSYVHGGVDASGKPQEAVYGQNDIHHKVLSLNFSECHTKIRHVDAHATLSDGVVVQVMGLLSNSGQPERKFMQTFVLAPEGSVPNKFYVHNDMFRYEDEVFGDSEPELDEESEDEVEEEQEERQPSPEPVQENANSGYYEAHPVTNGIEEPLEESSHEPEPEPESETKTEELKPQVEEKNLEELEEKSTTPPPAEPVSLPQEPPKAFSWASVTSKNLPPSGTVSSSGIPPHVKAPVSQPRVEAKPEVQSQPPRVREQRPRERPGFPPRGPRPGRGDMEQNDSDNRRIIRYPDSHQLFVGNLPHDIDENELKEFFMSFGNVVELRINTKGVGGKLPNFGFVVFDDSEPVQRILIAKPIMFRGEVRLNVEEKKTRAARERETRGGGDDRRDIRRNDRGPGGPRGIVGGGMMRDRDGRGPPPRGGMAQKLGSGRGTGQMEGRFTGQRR
UniProt Q8WTR4: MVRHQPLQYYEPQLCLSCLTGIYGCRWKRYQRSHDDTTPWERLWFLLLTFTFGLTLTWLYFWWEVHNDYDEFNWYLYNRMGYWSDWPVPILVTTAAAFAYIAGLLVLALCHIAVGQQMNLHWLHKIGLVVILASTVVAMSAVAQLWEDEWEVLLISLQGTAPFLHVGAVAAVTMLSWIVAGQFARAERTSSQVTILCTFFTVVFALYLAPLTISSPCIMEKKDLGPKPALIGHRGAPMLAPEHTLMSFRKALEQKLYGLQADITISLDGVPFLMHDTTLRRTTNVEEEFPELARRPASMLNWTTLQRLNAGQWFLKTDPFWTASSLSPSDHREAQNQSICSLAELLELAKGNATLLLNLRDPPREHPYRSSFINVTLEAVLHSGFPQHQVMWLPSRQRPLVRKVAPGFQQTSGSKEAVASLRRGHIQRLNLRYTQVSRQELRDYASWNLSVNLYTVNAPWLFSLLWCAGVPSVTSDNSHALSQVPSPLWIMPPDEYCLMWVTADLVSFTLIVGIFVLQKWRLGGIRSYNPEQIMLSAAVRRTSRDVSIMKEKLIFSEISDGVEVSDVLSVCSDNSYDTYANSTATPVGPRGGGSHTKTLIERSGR
UniProt Q8NCW6: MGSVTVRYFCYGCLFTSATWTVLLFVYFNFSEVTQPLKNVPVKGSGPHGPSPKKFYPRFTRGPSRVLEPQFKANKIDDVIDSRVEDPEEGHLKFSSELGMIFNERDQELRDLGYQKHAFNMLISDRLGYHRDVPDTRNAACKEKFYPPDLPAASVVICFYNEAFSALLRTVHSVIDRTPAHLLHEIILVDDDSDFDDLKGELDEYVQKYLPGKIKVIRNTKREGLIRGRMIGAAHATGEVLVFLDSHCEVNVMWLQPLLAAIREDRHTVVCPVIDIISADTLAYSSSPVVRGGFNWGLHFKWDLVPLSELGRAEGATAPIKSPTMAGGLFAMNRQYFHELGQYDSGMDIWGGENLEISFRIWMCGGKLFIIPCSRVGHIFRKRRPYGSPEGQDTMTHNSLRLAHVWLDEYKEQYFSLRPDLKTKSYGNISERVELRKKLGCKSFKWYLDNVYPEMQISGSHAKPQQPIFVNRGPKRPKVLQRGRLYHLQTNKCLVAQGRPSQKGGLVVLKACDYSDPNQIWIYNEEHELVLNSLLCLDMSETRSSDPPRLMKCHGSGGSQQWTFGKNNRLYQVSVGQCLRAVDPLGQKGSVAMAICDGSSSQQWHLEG
UniProt P15976: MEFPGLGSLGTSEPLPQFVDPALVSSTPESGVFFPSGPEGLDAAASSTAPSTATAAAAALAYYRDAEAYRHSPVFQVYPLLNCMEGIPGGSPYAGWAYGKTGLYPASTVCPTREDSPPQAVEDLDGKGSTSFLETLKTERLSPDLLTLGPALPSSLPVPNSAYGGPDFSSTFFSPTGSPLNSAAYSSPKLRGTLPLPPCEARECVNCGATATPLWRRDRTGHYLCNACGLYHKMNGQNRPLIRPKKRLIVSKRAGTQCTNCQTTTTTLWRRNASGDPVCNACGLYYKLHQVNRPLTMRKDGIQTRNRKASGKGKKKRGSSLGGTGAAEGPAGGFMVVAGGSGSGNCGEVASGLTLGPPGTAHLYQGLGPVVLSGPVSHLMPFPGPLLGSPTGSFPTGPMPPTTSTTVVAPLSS
UniProt P02774: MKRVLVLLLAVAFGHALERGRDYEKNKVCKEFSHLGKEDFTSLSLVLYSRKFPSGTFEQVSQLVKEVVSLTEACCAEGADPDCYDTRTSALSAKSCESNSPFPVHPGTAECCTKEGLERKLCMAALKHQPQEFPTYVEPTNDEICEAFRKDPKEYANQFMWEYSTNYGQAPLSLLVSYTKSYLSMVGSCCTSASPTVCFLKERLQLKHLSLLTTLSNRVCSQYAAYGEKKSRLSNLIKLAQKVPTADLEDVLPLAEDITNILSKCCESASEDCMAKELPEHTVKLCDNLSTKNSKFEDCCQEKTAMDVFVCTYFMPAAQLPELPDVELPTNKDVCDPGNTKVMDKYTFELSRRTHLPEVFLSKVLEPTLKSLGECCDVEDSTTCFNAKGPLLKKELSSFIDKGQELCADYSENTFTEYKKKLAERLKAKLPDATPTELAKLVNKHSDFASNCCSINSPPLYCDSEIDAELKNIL
UniProt Q17RS7: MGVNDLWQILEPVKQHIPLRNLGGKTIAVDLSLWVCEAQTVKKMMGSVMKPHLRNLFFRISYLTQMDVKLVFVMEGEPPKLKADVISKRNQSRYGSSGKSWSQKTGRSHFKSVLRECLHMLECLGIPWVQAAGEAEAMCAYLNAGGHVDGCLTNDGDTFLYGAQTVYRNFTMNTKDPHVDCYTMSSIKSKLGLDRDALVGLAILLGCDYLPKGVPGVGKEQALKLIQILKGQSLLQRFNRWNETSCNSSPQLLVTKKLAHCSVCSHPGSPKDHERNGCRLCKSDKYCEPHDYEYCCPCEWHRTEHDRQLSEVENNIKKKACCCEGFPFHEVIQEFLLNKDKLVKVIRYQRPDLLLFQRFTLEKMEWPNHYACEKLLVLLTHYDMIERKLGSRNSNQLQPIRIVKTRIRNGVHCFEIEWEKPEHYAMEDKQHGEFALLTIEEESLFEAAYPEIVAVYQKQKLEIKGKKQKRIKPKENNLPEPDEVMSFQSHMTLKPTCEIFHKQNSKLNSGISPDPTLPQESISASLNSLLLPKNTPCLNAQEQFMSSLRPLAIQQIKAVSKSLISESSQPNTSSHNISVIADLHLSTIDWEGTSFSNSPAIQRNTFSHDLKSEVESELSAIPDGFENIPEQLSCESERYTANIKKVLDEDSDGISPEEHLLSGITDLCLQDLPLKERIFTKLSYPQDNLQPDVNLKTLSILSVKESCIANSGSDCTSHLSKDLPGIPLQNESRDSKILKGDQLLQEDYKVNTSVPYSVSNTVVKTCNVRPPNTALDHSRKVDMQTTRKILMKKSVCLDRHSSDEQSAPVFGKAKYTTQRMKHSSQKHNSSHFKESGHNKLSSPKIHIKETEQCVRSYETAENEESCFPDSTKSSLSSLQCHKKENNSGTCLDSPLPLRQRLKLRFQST
UniProt Q99988: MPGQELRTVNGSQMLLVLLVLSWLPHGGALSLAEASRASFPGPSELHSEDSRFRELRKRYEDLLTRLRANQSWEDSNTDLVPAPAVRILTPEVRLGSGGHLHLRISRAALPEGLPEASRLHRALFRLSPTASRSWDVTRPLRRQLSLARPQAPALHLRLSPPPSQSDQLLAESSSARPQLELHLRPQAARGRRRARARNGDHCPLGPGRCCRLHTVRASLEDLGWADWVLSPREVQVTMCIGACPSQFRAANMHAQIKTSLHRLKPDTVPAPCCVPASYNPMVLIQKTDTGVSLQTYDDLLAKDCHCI
UniProt Q8IVP5: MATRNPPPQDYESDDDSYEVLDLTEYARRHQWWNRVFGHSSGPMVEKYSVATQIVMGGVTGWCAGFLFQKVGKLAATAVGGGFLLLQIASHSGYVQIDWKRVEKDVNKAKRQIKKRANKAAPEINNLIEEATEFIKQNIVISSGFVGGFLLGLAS
UniProt Q9UP38, whole entry, looked up: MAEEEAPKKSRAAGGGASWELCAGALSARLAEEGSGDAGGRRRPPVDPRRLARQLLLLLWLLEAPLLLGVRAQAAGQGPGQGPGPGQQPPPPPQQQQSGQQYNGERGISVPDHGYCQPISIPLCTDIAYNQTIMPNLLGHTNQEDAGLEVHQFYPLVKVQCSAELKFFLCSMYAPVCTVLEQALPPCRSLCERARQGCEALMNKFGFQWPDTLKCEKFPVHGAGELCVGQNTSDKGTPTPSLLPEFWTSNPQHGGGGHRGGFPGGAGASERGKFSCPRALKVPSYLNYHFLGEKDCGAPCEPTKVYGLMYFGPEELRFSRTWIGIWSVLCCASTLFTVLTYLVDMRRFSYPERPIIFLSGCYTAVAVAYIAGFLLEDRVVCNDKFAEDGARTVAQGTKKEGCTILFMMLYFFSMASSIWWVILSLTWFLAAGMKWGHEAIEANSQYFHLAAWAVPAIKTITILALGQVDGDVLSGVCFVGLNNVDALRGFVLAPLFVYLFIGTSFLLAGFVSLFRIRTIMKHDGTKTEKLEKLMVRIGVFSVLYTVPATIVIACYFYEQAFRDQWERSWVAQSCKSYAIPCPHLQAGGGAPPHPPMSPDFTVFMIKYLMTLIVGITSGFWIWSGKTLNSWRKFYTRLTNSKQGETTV
UniProt Q13467, whole entry, looked up: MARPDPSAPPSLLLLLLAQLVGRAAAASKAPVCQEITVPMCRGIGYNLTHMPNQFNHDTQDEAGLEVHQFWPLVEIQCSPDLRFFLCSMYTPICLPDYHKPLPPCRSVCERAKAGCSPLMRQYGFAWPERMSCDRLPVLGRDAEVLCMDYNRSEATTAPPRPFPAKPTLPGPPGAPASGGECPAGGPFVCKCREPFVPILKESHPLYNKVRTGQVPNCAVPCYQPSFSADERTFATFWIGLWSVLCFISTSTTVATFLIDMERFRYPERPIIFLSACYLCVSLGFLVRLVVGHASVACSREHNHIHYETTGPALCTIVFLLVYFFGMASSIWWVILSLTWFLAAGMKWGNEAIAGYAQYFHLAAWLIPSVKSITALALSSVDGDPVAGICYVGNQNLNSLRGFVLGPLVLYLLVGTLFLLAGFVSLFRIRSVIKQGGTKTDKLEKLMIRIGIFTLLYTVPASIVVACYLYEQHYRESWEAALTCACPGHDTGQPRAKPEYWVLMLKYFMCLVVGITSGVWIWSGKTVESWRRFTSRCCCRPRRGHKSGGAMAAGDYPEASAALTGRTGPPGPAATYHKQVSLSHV
UniProt P24522: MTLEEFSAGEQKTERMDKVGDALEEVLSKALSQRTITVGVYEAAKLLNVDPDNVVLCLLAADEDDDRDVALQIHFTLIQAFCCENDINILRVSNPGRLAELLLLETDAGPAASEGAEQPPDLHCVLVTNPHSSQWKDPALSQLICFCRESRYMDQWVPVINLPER
UniProt Q495W5: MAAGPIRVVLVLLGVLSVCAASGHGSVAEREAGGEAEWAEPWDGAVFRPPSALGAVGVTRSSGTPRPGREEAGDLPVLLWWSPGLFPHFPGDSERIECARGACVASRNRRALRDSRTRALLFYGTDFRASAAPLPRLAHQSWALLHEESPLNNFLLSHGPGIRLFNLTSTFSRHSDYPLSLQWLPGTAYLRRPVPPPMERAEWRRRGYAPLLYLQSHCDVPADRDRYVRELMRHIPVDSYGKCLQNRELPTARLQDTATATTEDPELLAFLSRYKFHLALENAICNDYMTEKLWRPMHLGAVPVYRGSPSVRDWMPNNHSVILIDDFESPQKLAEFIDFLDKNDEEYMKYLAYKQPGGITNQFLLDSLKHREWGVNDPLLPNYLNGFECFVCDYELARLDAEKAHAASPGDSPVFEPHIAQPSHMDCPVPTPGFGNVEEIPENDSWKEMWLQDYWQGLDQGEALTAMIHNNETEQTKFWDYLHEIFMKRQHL
UniProt Q5VTD9: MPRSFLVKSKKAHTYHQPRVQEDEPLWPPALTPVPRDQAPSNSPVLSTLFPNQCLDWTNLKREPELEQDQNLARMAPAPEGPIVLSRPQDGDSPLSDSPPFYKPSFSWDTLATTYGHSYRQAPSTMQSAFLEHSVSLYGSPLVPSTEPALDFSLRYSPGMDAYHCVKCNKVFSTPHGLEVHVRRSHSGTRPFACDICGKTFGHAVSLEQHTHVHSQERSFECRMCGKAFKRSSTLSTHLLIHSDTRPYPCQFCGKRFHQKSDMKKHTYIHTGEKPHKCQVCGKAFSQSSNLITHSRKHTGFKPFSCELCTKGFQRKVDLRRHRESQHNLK

Tests used:
Test in all cases: log2 fold change, soluble protein after heating vs DMSO (PISA); higher = thermal stabilisation; K562 lysate, 10 uM; active = over 0.2 and 3.5 SD of the protein, either way, in both replicates (recomputed)
[1] = compound: Cc1sc2c(c1C)C(c1ccc(Cl)cc1)=N[C@@H](CC(=O)OC(C)(C)C)c1nnc(C)n1-2
Procedure, shortened: (§1)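 Values give the log-two fold change in thermal stability against solvent controls, from duplicates. Crude K562 extract at 1 mg/mL protein, made by dounce homogenisation in PBS pH 7.4 with 1 mM MgCl2, was treated with 10 μM compound for 30 min. After 3 min heating across 48°C-58°C, aliquots were pooled, adjusted to 0.5% NP-40 at 4°C and centrifuged at 21,000xg for 90 min. The supernatant was measured by TMTpro 16plex LC-MS/MS with channel sums equalised.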

[2] = compound: c1ccc([C@@H]2C[C@H]2NC2CCNCC2)cc1
Procedure, shortened: as §1

[3] = compound: CC1=C2C(=CC=C1)N=C(N(C2=O)C3=CC=CC=C3C)CN4C=NC5=C(N=CN=C54)N
Procedure, shortened: as §1

[4] = compound: C1=CC=C(C=C1)[C@H](COC2=CC3=C(C=C2)NC(=O)N3)NC(=O)C4=CC=CN(C4=O)CC5=CC(=C(C=C5)F)F
Procedure, shortened: as §1

[5] = compound: CC1=C(SC2=C1C(=N[C@H](C3=NN=C(N32)C)CC(=O)N)C4=CC=C(C=C4)Cl)C
Procedure, shortened: as §1

G3BP2 isoform 2 (UniProt Q9UN86) was tested, and the log2 fold change [1] was inactive: -0.248 and the log2 fold change [2] was inactive: 0.014.
GDPD5 (UniProt Q8WTR4) was tested, and the log2 fold change [3] was inactive: -0.069.
For GALNT11 (UniProt Q8NCW6), the log2 fold change [3] was inactive: 0.248, the log2 fold change [1] was inactive: 0.085 and the log2 fold change [2] was inactive: -0.112.
In the case of GATA1 (UniProt P15976), the log2 fold change [4] is reported as inactive: -0.064, the log2 fold change [5] is reported as inactive: -0.037 and the log2 fold change [1] is reported as inactive: 0.015. The log2 fold change [2] was inactive: -0.115.
In the case of GC isoform 3 (UniProt P02774), the log2 fold change [3] is reported as inactive: 0.007, the log2 fold change [1] is reported as inactive: -0.138 and the log2 fold change [2] is reported as inactive: 0.107.
For GATB (UniProt O75879), the log2 fold change [3] was inactive: 0.085, the log2 fold change [1] was inactive: 0.303 and the log2 fold change [2] was inactive: -0.033.
For GEN1 (UniProt Q17RS7), the log2 fold change [3] was inactive: 0.037 and the log2 fold change [1] was inactive: 0.06.
For GDF15 (UniProt Q99988), the log2 fold change [3] was inactive: 0.122, the log2 fold change [1] was inactive: 0.07 and the log2 fold change [2] was inactive: -0.162.
FUNDC1 (UniProt Q8IVP5) was tested, and the log2 fold change [3] was inactive: 0.046, the log2 fold change [1] was inactive: -0.133 and the log2 fold change [2] was inactive: -0.408.
In the case of FZD1 (UniProt Q9UP38), the log2 fold change [2] is reported as inactive: 0.037.
In the case of FZD5 (UniProt Q13467), the log2 fold change [4] is reported as inactive: 0.001, the log2 fold change [5] is reported as inactive: -0.119 and the log2 fold change [1] is reported as inactive: 0.048. The log2 fold change [2] was inactive: 0.442.
For GADD45A (UniProt P24522), the log2 fold change [2] was inactive: -0.16.
With FUT11 (UniProt Q495W5) the log2 fold change [4] was inactive: 0.122, the log2 fold change [5] was inactive: -0.053 and the log2 fold change [2] was inactive: -0.033.
With FSCN2 isoform 2 (UniProt O14926) the log2 fold change [3] was inactive: -0.045.
With GFI1B (UniProt Q5VTD9) the log2 fold change [1] was inactive: -0.167.
